{"source": "the supplement of paper PMC8728848", "binders": {"B1": {"name": "PEB4 (Campylobacter jejuni), A1VYV6 (protein)", "chain": "MKKFSLVAAALIAGVALNVNAATVATVNGKSISDAEVSEFFAPMLRGQDFKTLPDNQKKALIQQYIMQDLILQDAKKQNLEKDPLYTKELDRAKDAILVNVYQEKILNTIKIDAAKVKAFYDQNKDKYVKPARVQAKHILVATEKEAKDIINELKGLKGKELDAKFSELAKEKSIDPGSKNQGGELGWFDQSTMVKPFTDAAFALKNGTITTTPVKTNFGYHVILKENSQAKGQIKFDEVKQGIENGLKFEEFKKVINQKGQDLLNSAKVEYK"}}, "test_in_all_cases": "glycan array binding signal (z-score within array); higher = stronger binding", "settings_in_all_cases": "glycan notation: IUPAC condensed, linker removed", "key": {"Neu5Ac(a2-8)Neu5Ac": {"molecular_target": "Neu5Ac(a2-8)Neu5Ac", "in_short": "(§1)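 From the Consortium for Functional Glycomics database, 3228 arrays were curated, keeping only those whose protein sequence was available. Binding is given as a within-array Z-score averaged across arrays sharing a protein sequence and across linkers. Negative Z-scores can be read as non-binding.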"}, "[1]": {"molecular_target": "Neu5Ac(a2-8)Neu5Ac(a2-3)Gal(b1-4)Glc", "in_short": "as §1"}, "[2]": {"molecular_target": "Neu5Ac(a2-8)Neu5Ac(a2-3)[GalNAc(b1-4)]Gal(b1-4)Glc", "in_short": "as §1"}, "[3]": {"molecular_target": "Neu5Ac(a2-8)Neu5Ac(a2-8)Neu5Ac", "in_short": "as §1"}, "[4]": {"molecular_target": "Neu5Ac(a2-8)Neu5Ac(a2-8)Neu5Ac(a2-3)Gal(b1-4)Glc", "in_short": "as §1"}, "[5]": {"molecular_target": "Neu5Ac(a2-8)Neu5Ac(a2-8)Neu5Ac(a2-3)[GalNAc(b1-4)]Gal(b1-4)Glc", "in_short": "as §1"}, "[6]": {"molecular_target": "Neu5Ac(a2-8)Neu5Ac(a2-8)Neu5Ac(a2-8)Neu5Ac(a2-3)[GalNAc(b1-4)]Gal(b1-4)Glc", "in_short": "as §1"}, "[7]": {"molecular_target": "Neu5Ac(b2-6)Gal(b1-4)GlcNAc", "in_short": "as §1"}, "Neu5Ac(b2-6)GalNAc": {"molecular_target": "Neu5Ac(b2-6)GalNAc", "in_short": "as §1"}, "[8]": {"molecular_target": "Neu5Ac9Ac(a2-3)Gal(b1-3)GlcNAc", "in_short": "as §1"}, "[9]": {"molecular_target": "Neu5Ac9Ac(a2-3)Gal(b1-4)GlcNAc", "in_short": "as §1"}, "[10]": {"molecular_target": "Neu5Ac9Ac(a2-6)Gal(b1-4)GlcNAc", "in_short": "as §1"}, "[11]": {"molecular_target": "Neu5Gc(a2-3)Gal(b1-3)GlcNAc", "in_short": "as §1"}, "[12]": {"molecular_target": "Neu5Gc(a2-3)Gal(b1-3)[Fuc(a1-4)]GlcNAc", "in_short": "as §1"}, "Neu5Gc(a2-3)Gal(b1-4)Glc": {"molecular_target": "Neu5Gc(a2-3)Gal(b1-4)Glc", "in_short": "as §1"}, "[13]": {"molecular_target": "Neu5Gc(a2-3)Gal(b1-4)GlcNAc", "in_short": "as §1"}, "[14]": {"molecular_target": "Neu5Gc(a2-3)Gal(b1-4)[Fuc(a1-3)]GlcNAc", "in_short": "as §1"}, "[15]": {"molecular_target": "Neu5Gc(a2-6)Gal(b1-4)GlcNAc", "in_short": "as §1"}, "Neu5Gc(a2-6)GalNAc": {"molecular_target": "Neu5Gc(a2-6)GalNAc", "in_short": "as §1"}, "[16]": {"molecular_target": "Neu5Gc(b2-6)Gal(b1-4)GlcNAc", "in_short": "as §1"}}, "note": "The other results are listed elsewhere or left out."}
{"binder": "B1", "values": [{"measurement": "glycan array binding signal (z-score)", "setting": "Neu5Ac(a2-8)Neu5Ac", "value": -0.265}, {"measurement": "glycan array binding signal (z-score)", "setting": "[1]", "value": -0.705}, {"measurement": "glycan array binding signal (z-score)", "setting": "[2]", "value": -0.055}, {"measurement": "glycan array binding signal (z-score)", "setting": "[3]", "value": -0.324}, {"measurement": "glycan array binding signal (z-score)", "setting": "[4]", "value": -0.607}, {"measurement": "glycan array binding signal (z-score)", "setting": "[5]", "value": -0.327}, {"measurement": "glycan array binding signal (z-score)", "setting": "[6]", "value": -0.575}, {"measurement": "glycan array binding signal (z-score)", "setting": "[7]", "value": 0.256}, {"measurement": "glycan array binding signal (z-score)", "setting": "Neu5Ac(b2-6)GalNAc", "value": -0.906}, {"measurement": "glycan array binding signal (z-score)", "setting": "[8]", "value": -0.527}, {"measurement": "glycan array binding signal (z-score)", "setting": "[9]", "value": -1.05}, {"measurement": "glycan array binding signal (z-score)", "setting": "[10]", "value": -1.18}, {"measurement": "glycan array binding signal (z-score)", "setting": "[11]", "value": 0.201}, {"measurement": "glycan array binding signal (z-score)", "setting": "[12]", "value": 1.3}, {"measurement": "glycan array binding signal (z-score)", "setting": "Neu5Gc(a2-3)Gal(b1-4)Glc", "value": -0.455}, {"measurement": "glycan array binding signal (z-score)", "setting": "[13]", "value": -0.247}, {"measurement": "glycan array binding signal (z-score)", "setting": "[14]", "value": -0.805}, {"measurement": "glycan array binding signal (z-score)", "setting": "[15]", "value": -0.439}, {"measurement": "glycan array binding signal (z-score)", "setting": "Neu5Gc(a2-6)GalNAc", "value": -0.106}, {"measurement": "glycan array binding signal (z-score)", "setting": "[16]", "value": 0.497}]}
